{"source": "patent US20180344696A1", "about": "“SYNERGISTIC COMBINATION OF PYRROLIDONE CARBOXYLIC ACID AND/OR SALTS THEREOF AND HYALURONIC ACID AND/OR SALTS THEREOF, FOR USE IN THE TREATMENT AND/OR PREVENTION OF DRYNESS AND IRRITATION OF THE MUCOSAE, AND RELATED PHARMACEUTICAL FORMULATIONS” (LABORATORI BALDACCI S.P.A., priority 2015, published 2018)", "experiment": "Hygroscopic test according to Farmacopea Ufficiale Italiana (FUI) XII", "format": "physicochemical", "details": "5.00 g dried sample, 25° C., 24 hours", "protocol": "The determination of hygroscopicity of the combination of PCA and hyaluronic acid was performed, a test related to the hydration capability of a compound or mixture of compounds, to evaluate the synergism of the combination of PCA and hyaluronic acid for use in the treatment and/or prevention of dryness and irritation of the mucosae. […] At the end of the procedure, the contained was closed with its lid and weighed again (m3).", "note": "At least one structure is not confirmed: it was looked up by name or label, or the drawing left a doubt."}
{"smiles": "O=C1CCC(C(=O)O)N1", "note": "(stereo not shown) [PCA, Pyrrolidone carboxylic acid]", "values": [{"measurement": "Result (hygroscopicity class)", "result": "slightly hygroscopic"}, {"measurement": "Water adsorption (%) (average of the triplicate)", "result": 1.01, "unit": "%"}, {"measurement": "Water adsorption (g) (average of the triplicate)", "result": 0.05, "unit": "g"}, {"measurement": "Final Weight", "setting": "desiccator with saturated ammonium chloride or ammonium sulfate solution", "result": "5.05 ± 0.01", "unit": "g"}]}
